Reference: PubChem BioAssay AID1508588 (Peter MacCallum Cancer Centre, 2020)

- Purpose: 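Genome-wide search for knock-downs that heighten vemurafenib action in melanoma cells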 (primary screen)
- System: human WM266.4 melanoma cells (BRAF V600 mutant)
- Knock-down reagent: siRNA pool against human genes, 40 nM
- Duration: 96 h from transfection to read-out
- Treatment: vemurafenib 300 nM (about IC25), added 48 h after transfection, for 48 h; comparison arm got DMSO vehicle only
- Measurement: 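Cell gain (DAPI nuclei at end minus before drug, mean of two replicates) and medium lactate by absorbance per cell, both as ratio to non-targeting siRNA, also grouped into fold-change classes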
- Reading the numbers: cell gain with vemurafenib: higher = more cell gain than with non-targeting siRNA; lactate per cell with vemurafenib: higher = more lactate made per cell
- Call rule: 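Enhancement is called by pairing each knock-down's vehicle-arm and drug-arm fold-change classes for viability or glycolysis; which class combinations qualify is not given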
- Calls: active = enhances vemurafenib effect; inactive = no enhancement seen
The whole screen tested about 18,000 reagents; below is an unselected part. In the full data, 790 (4.4%) got an active call. 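Calls rest on a combination of fold-change classes in drug and vehicle arms, not all shown here.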 No sequences are given here.

no.	Gene	cell gain with vemurafenib	lactate per cell with vemurafenib	activity call
1	USP10 (GeneID 9100)	0.45	0.52	inactive
2	HEATR9 (GeneID 256957)	0.2	1.96	inactive
3	NDUFAF4 (GeneID 29078)	1.21	0.82	inactive
4	PGBD3 (GeneID 267004)	0.82	1.05	inactive
5	TCTN2 (GeneID 79867)	0.93	0.68	inactive
6	CD5 (GeneID 921)	0.45	0.73	inactive
7	CDKN1B (GeneID 1027)	0.31	0.68	inactive
8	CHID1 (GeneID 66005)	0.53	0.79	inactive
9	EXOC3L4 (GeneID 91828)	0.59	1	inactive
10	ERAL1 (GeneID 26284)	0.6	1.43	inactive
11	KIAA1217 (GeneID 56243)	0.82	0.81	inactive
12	GNAO1 (GeneID 2775)	1.25	0.81	inactive
13	EYA1 (GeneID 2138)	0.61	1.04	inactive
14	FAM9C (GeneID 171484)	0.64	0.85	inactive
15	RRP12 (GeneID 23223)	0.43	1.52	inactive
16	SLC68A1 (GeneID 79847)	0.46	0.66	inactive
17	ZFP2 (GeneID 80108)	0.82	0.96	inactive
18	IWS1 (GeneID 55677)	0.77	0.47	inactive
19	PCBP1 (GeneID 5093)	0.59	0.56	inactive
20	NFKB2 (GeneID 4791)	0.58	1.01	inactive
21	TEX261 (GeneID 113419)	0.94	0.88	inactive
22	VAV3 (GeneID 10451)	0.88	0.61	inactive
23	OR52N1 (GeneID 79473)	0.87	0.68	inactive
24	FADD (GeneID 8772)	0.97	0.7	inactive
25	IL1RN (GeneID 3557)	0.96	0.98	inactive
26	PIGX (GeneID 54965)	0.21	1.42	inactive
27	KMT2C (GeneID 58508)	1.01	0.8	inactive
28	TRIM16 (GeneID 10626)	0.32	0.48	active
29	PAK5 (GeneID 57144)	0.49	0.6	active
30	RLIM (GeneID 51132)	1.17	0.67	inactive
31	DCLK3 (GeneID 85443)	0.93	0.64	inactive
32	TMBIM4 (GeneID 51643)	0.21	2.01	inactive
33	MYOZ3 (GeneID 91977)	0.73	1.18	inactive
34	SLC1A7 (GeneID 6512)	1.12	0.93	inactive
35	PDIA6 (GeneID 10130)	0.72	1.36	inactive
36	PPP1R1A (GeneID 5502)	0.66	0.48	active
37	SPINT1 (GeneID 6692)	0.36	0.92	inactive
38	CDNF (GeneID 441549)	0.92	0.97	inactive
39	TRIM43 (GeneID 129868)	0.99	0.88	inactive
40	FBXW12 (GeneID 285231)	0.65	1.41	inactive
41	WIPI1 (GeneID 55062)	0.34	0.99	inactive
42	DZIP1L (GeneID 199221)	0.49	0.7	inactive
43	PYHIN1 (GeneID 149628)	0.46	0.86	inactive
44	ABHD1 (GeneID 84696)	0.87	0.96	inactive
45	AOC2 (GeneID 314)	0.88	1.16	inactive
46	ANGPTL4 (GeneID 51129)	0.7	0.99	inactive
47	UNC119 (GeneID 9094)	0.78	1.08	inactive
48	ANKRD13D (GeneID 338692)	0.18	2.33	inactive
49	KCNK9 (GeneID 51305)	0.79	1.31	inactive
50	FMN2 (GeneID 56776)	0.89	0.8	inactive
51	SOX21 (GeneID 11166)	0.89	0.68	inactive
52	ZNF721 (GeneID 170960)	0.69	1.05	inactive
53	TXNDC17 (GeneID 84817)	0.85	1.19	inactive
54	NYAP1 (GeneID 222950)	1.12	0.71	inactive
55	DCK (GeneID 1633)	0.17	1.42	inactive
56	GNPAT (GeneID 8443)	0.98	0.66	inactive
57	CWH43 (GeneID 80157)	0.29	1.6	inactive
58	ATG16L2 (GeneID 89849)	0.82	0.85	inactive
59	TIMM44 (GeneID 10469)	0.24	0.26	inactive
60	AK7 (GeneID 122481)	0.98	1.09	inactive
61	CHST11 (GeneID 50515)	0.91	0.76	inactive
62	OGN (GeneID 4969)	0.89	0.3	inactive
63	LRP1 (GeneID 4035)	0.35	1.48	inactive
64	PFDN6 (GeneID 10471)	0.07	0.51	active
65	SEPTIN12 (GeneID 124404)	0.74	0.9	inactive
66	ZNF512B (GeneID 57473)	0.33	0.5	inactive
67	MRPL55 (GeneID 128308)	0.61	1.29	inactive
68	DNASE1L1 (GeneID 1774)	0.7	0.58	inactive
69	TICRR (GeneID 90381)	0.06	1.23	inactive
70	LRRC59 (GeneID 55379)	0.43	1.44	inactive
71	ADGRF5 (GeneID 221395)	0.78	0.74	inactive
72	VAMP8 (GeneID 8673)	0.33	1.02	inactive
73	C6orf15 (GeneID 29113)	0.56	0.72	inactive
74	PTBP3 (GeneID 9991)	0.7	0.79	inactive
75	HK2 (GeneID 3099)	0.37	1.22	inactive
76	H2AC7 (GeneID 3013)	0.64	0.56	inactive
77	PCDHB15 (GeneID 56121)	0.32	1.12	inactive
78	TRIM22 (GeneID 10346)	1.07	0.72	inactive
79	SULF1 (GeneID 23213)	0.53	0.78	inactive
80	GYPB (GeneID 2994)	0.29	1.92	inactive
81	SPN (GeneID 6693)	0.56	0.97	inactive
82	ADSS1 (GeneID 122622)	0.31	2.17	inactive
83	ADO (GeneID 84890)	1.05	0.74	inactive
84	SH3BP5 (GeneID 9467)	0.73	1.04	inactive
